Source: US20120020958A1, “FIBCD1 FOR THE PREVENTION AND TREATMENT OF DISEASES” (Dansk Universitet, priority 2008, published 2012)
At least one compound was matched to its structure with a doubt left.

Target: T1, FIBCD1 ectodomain (Homo sapiens, UniProt Q8N539)
T1 construct: The V5-His tagged putative ectodomain of FIBCD1, encoding amino acid 54-461, was generated by PCR; made in house; host or cells: HEK293 (Flp-In T-REx), secreted via pSecTag/FRT/V5-His TOPO vector
T1 sequence (Q8N539 54-461): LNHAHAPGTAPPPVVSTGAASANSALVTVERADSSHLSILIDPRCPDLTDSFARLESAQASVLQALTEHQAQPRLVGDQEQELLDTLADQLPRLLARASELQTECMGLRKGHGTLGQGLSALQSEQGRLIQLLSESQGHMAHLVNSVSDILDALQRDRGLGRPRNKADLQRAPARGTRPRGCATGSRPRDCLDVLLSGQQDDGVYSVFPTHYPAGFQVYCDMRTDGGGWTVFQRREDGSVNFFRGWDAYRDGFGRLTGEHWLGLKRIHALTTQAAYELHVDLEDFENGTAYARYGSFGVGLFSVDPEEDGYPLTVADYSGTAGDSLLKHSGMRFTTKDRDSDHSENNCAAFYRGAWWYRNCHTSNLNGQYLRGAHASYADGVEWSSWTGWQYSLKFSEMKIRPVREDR
Test: ELISA inhibition of binding between FIBCD1 ectodomain and acetylated BSA
Conditions: sodium acetate: even at millimolar levels
Method: The ligand selectivity of FIBCD1 was investigated by inhibiting the binding of FIBCD1 ectodomain to acetylated BSA coated microtiter plates (FIG. 2G, Table 1).
An ELISA system was used to evaluate the ability of various acetylated and nonacetylated compounds to inhibit the binding between FIBCD1 ectodomain and acetylated BSA (Sigma). Microtiter plates (NUNC Maxisorp, Denmark) were coated with acetylated BSA (Sigma) or BSA (Sigma) and blocked with TBS/Tw before being incubated with FIBCD1 ectodomain samples diluted in TBS/Tw (5 mM CaCl2). The binding between FIBCD1 and acetylated BSA was also tested in the presence of 10 mM EDTA, 5 mM MnCl2 or 5 mM MgCl2 instead of CaCl2. After incubation overnight at 4° C. and washing, the wells were incubated for 2 h at room temperature with chicken anti-FIBCD1 antibodies diluted 1:1000 in TBS/Tw (5 mM CaCl2). The plates were washed with TBS/Tw (5 mM CaCl2) and incubated for 1 h with alcalic phosphatase-labelled anti-chicken IgY (whole molecule) (Sigma-Aldrich) diluted 1:1500 in TBS/Tw (5 mM CaCl2) followed by washing and developed with 1 mg/ml para-nitrophenylphosphate, disodium salt (PNPP) (Boehringer Mannheim, Germany) in substrate buffer.
The mixtures were incubated overnight in the acetylated BSA coated wells overnight at 4° C. and processed as described above.

CC(=O)OCC[N+](C)(C)C [Acetylcholine, acetyl cholin]
inhibition of binding of FIBCD1 to acetylated BSA: could also inhibit
